PubChem BioAssay AID1259254, NCATS | 2017
Aim: 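Gene knock-downs that lead to re-replication, shown by excess G2 DNA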 (primary screen). Cell system: human HCT116 colorectal cancer cells. Knock-down reagent: single siRNA against human genes. Duration: 3 days. Read-out: 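Imaged Hoechst DNA stain sorts each cell into a cycle phase by DNA amount; per plate, G2 fraction set to 0% for non-targeting and 100% for GMNN siRNA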. Direction: G2 robust z-score and G2 cells, % of GMNN control: higher = more G2 cells, more excess DNA replication. Hit rule: 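An siRNA counts as active if its G2 robust z-score lies at least 5 MADs above the screen median; here such calls match roughly 38% of GMNN control or more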.
Here is a random part of about 59,000 deposited reagents. Over the whole deposit, about 1,550 (2.6%) are marked active. 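G2 share is only a proxy for re-replication; each gene was hit by three separate siRNAs, and active genes were retested.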 The numbers tell different reagents against one gene apart. Not all columns of the deposit are shown. Reagent sequences are not shown. The record does not give: the amount of reagent.

TLCD3A (TLC domain containing 3A) #1 → G2 robust z-score = -0.802; G2 cells, % of GMNN control = -2.68; call = inactive
TLCD3A (TLC domain containing 3A) #2 → G2 robust z-score = -0.383; G2 cells, % of GMNN control = 0.275; call = inactive
TLCD3A (TLC domain containing 3A) #3 → G2 robust z-score = -0.15; G2 cells, % of GMNN control = 1.91; call = inactive
CDC26 (cell division cycle 26) #1 → G2 robust z-score = 0.509; G2 cells, % of GMNN control = 6.55; call = inactive
CDC26 (cell division cycle 26) #2 → G2 robust z-score = 3.78; G2 cells, % of GMNN control = 29.5; call = inactive
CDC26 (cell division cycle 26) #3 → G2 robust z-score = 3.19; G2 cells, % of GMNN control = 25.4; call = inactive

The list goes on, starting with the last 2 of the part before.
CDC26 (cell division cycle 26) #2 → G2 robust z-score = 3.78; G2 cells, % of GMNN control = 29.5; call = inactive
CDC26 (cell division cycle 26) #3 → G2 robust z-score = 3.19; G2 cells, % of GMNN control = 25.4; call = inactive
CFAP119 (cilia and flagella associated protein 119) #1 → G2 robust z-score = -0.45; G2 cells, % of GMNN control = -0.197; call = inactive
CFAP119 (cilia and flagella associated protein 119) #2 → G2 robust z-score = 0.0275; G2 cells, % of GMNN control = 3.16; call = inactive
CFAP119 (cilia and flagella associated protein 119) #3 → G2 robust z-score = 0.265; G2 cells, % of GMNN control = 4.83; call = inactive
SLC30A2 #1 → G2 robust z-score = 0.545; G2 cells, % of GMNN control = 6.8; call = inactive
SLC30A2 #2 → G2 robust z-score = 3.13; G2 cells, % of GMNN control = 25; call = inactive
SLC30A2 #3 → G2 robust z-score = 0.24; G2 cells, % of GMNN control = 4.66; call = inactive
